For assay [1], the target named is 3xFLAG-N-Myc (full-length N-Myc with a 3xFLAG tag) (UniProt P04198). Description: affinity purification with mass spectrometry; exogenous co-IP using FLAG beads: lysate of 293T cells stably expressing 3xFLAG-N-Myc (MG132 10 μg/ml 6 h), anti-FLAG magnetic beads overnight at 4 °C, 293T cells expressing 3xFLAG as negative control; wash 50 mM Tris, 150 mM NaCl, 0.5% Tween-20, pH 7.5; HPLC-MS/MS, three replicates.

Amino acid sequences for entries named in this document (tags omitted).
UniProt Q92598: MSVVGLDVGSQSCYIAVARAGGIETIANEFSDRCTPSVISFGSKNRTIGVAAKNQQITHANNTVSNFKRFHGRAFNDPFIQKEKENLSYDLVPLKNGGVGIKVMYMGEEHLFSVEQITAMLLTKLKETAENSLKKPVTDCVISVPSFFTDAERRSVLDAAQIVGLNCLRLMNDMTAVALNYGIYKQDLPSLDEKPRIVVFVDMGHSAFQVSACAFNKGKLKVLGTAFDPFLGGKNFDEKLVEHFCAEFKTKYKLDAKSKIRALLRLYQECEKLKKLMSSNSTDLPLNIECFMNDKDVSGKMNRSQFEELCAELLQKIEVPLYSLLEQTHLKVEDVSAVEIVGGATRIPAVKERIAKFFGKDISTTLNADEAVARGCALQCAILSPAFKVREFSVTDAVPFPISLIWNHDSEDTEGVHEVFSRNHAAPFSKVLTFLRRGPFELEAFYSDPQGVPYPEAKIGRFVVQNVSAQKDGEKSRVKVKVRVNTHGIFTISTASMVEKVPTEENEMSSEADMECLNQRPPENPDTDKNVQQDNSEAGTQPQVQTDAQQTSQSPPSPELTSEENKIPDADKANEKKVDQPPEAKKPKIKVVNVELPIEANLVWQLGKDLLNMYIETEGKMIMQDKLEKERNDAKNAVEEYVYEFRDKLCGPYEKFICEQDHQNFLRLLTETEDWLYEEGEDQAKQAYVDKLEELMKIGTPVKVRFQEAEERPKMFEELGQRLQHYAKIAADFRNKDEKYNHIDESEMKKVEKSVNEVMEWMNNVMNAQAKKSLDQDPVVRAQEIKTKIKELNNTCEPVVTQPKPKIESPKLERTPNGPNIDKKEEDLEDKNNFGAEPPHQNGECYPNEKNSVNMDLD
UniProt Q7Z6Z7: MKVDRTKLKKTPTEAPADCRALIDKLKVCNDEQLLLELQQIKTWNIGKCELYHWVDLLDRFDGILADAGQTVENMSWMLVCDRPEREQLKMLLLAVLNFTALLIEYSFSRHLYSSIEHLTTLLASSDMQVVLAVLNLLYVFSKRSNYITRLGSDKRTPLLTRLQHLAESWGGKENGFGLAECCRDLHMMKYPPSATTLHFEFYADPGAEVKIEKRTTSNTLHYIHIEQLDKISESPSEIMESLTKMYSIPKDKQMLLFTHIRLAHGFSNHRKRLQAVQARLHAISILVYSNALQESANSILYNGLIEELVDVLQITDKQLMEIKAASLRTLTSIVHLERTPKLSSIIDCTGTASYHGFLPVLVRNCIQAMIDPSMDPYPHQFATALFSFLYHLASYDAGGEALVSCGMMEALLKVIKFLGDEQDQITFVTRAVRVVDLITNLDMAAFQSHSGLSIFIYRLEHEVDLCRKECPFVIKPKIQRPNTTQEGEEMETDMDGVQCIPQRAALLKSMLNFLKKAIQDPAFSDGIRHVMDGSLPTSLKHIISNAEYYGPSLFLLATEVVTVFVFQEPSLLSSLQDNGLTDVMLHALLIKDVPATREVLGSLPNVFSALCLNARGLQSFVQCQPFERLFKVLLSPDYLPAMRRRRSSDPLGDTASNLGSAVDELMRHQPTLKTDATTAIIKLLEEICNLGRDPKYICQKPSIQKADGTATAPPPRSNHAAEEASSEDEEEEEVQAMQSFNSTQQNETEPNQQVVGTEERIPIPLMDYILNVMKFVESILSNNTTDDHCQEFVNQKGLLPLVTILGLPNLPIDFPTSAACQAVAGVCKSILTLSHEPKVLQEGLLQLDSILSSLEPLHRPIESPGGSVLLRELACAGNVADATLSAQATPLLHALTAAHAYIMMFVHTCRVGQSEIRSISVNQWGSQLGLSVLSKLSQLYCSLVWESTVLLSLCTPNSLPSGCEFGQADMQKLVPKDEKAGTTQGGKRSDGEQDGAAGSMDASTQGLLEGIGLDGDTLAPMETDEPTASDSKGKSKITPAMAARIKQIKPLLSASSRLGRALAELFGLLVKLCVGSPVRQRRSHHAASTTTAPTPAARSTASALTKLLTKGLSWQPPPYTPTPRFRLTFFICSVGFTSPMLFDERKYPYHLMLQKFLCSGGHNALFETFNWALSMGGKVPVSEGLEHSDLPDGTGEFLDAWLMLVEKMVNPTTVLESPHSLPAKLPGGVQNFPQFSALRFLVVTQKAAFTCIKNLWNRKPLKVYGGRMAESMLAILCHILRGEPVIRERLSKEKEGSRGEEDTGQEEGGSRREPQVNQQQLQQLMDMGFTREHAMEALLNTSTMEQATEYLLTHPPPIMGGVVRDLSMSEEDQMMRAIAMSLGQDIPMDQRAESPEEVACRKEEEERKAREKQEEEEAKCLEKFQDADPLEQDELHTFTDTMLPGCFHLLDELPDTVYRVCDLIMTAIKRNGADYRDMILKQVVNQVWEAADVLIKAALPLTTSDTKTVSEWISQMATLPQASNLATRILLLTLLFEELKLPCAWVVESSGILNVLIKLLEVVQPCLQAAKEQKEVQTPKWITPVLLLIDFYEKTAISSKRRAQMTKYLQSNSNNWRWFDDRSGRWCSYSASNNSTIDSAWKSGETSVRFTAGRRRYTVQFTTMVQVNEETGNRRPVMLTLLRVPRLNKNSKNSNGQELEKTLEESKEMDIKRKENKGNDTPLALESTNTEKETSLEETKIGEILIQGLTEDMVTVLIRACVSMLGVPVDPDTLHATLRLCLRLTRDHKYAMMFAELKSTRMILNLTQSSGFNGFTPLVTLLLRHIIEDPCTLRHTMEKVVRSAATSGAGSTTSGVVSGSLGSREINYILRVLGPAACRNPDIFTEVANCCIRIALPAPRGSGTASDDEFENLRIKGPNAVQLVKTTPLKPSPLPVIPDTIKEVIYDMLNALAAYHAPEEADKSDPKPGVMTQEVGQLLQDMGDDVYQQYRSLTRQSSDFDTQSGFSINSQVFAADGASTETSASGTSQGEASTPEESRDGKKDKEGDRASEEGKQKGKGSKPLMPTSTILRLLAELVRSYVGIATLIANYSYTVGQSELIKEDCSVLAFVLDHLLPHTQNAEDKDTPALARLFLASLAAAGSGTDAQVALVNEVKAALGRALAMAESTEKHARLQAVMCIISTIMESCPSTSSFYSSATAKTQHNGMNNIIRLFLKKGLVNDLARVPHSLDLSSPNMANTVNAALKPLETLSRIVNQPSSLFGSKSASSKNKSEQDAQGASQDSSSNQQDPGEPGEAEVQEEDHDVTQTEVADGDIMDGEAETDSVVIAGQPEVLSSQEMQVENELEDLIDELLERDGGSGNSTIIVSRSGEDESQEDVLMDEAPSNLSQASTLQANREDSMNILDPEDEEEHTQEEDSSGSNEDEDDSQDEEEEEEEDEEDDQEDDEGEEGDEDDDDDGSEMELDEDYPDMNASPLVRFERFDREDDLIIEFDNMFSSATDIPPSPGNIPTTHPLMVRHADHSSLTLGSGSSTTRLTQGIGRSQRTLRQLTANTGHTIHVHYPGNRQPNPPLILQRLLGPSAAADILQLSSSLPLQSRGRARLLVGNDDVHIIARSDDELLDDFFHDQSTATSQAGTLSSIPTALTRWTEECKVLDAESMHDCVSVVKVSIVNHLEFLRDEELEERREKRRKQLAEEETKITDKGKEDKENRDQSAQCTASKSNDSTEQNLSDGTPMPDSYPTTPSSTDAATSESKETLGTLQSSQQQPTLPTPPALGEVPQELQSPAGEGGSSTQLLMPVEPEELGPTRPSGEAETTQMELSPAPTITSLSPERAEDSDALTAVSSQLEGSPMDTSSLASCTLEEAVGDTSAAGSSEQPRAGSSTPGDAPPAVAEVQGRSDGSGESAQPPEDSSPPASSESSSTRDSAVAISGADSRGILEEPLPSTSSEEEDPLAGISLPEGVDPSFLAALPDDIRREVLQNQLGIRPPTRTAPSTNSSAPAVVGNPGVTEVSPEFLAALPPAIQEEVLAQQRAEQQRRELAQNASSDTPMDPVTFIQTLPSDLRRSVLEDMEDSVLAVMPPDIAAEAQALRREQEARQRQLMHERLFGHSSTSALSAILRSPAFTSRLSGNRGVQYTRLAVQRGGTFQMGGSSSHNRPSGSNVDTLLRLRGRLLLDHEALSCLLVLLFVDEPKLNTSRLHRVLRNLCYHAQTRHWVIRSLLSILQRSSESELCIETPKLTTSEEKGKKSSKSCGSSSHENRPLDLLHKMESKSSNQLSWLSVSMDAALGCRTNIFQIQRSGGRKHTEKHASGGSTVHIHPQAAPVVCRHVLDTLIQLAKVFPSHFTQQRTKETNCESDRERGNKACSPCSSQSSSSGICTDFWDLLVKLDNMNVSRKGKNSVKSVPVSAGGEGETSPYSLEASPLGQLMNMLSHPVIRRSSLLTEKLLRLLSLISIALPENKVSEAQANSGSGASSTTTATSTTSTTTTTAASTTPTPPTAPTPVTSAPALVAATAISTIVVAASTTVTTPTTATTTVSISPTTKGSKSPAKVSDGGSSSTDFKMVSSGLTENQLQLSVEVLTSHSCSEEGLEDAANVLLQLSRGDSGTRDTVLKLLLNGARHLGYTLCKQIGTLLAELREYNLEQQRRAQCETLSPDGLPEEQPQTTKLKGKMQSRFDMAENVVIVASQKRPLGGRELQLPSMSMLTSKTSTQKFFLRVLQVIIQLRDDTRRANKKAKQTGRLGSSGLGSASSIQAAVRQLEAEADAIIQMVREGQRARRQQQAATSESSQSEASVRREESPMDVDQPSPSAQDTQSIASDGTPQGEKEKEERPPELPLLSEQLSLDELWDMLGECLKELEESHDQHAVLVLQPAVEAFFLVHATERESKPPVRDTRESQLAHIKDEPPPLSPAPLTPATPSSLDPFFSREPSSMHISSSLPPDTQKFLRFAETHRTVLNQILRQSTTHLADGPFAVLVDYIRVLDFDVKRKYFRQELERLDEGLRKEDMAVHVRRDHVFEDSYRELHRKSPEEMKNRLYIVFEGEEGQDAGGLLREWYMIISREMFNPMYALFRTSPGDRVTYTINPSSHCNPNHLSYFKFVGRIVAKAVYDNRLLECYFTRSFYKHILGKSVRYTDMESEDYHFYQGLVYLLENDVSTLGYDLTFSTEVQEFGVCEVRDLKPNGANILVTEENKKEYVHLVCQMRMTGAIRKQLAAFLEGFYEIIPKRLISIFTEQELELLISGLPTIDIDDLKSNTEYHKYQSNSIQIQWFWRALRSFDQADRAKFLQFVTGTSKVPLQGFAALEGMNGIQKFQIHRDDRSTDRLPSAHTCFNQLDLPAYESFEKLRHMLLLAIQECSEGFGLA
UniProt P61244: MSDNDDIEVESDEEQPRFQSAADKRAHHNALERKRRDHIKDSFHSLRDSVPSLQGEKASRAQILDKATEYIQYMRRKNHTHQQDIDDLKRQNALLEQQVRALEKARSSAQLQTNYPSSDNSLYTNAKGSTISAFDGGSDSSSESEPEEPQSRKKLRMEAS
UniProt O95347: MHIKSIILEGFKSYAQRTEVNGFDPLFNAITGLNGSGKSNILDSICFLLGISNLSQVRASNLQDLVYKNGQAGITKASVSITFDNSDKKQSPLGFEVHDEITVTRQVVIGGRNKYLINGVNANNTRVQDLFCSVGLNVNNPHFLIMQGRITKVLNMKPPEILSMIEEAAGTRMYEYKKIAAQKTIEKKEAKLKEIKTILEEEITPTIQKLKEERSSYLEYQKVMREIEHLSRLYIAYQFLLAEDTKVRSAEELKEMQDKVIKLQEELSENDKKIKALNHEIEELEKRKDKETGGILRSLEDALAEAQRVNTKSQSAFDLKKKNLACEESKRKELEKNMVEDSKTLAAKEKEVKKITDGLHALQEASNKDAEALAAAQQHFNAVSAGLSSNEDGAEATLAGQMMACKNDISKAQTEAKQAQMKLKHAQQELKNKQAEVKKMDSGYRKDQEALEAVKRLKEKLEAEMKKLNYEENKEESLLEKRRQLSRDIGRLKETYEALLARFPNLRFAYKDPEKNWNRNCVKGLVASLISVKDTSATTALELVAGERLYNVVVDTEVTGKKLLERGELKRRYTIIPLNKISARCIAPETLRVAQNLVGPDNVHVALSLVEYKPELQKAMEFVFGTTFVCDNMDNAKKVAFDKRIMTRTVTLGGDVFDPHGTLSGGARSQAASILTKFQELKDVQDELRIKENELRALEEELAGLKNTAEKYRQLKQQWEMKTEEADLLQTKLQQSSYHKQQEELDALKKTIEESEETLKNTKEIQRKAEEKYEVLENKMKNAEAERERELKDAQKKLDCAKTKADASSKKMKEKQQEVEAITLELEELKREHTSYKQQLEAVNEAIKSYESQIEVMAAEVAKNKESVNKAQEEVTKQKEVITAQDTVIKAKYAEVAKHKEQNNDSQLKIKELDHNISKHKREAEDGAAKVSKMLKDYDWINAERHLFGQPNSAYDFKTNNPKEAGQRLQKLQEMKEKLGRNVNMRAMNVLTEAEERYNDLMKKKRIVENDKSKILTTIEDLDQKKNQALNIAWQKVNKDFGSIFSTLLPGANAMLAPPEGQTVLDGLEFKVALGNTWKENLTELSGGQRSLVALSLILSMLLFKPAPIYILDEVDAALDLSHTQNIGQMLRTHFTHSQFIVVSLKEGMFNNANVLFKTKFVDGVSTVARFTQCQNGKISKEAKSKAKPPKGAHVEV

Assay [2] concerns the target N-Myc proto-oncogene protein (human (endogenous in SK-N-BE(2))) (UniProt P04198). Description: affinity purification with mass spectrometry; endogenous co-IP: SK-N-BE(2) lysate (cells pretreated with MG132 10 μg/ml 6 h), N-Myc antibody overnight at 4 °C and protein A/G magnetic beads, normal IgG as negative control; wash 50 mM Tris, 150 mM NaCl, 0.5% Tween-20, pH 7.5; HPLC-MS/MS, label-free quantification, three replicates.

Assay [3] has as its target 3xFLAG-N-Myc (full-length N-Myc with a 3xFLAG tag) (UniProt P04198). Description: affinity purification with mass spectrometry; exogenous co-IP using N-Myc antibody: lysate of 293T cells stably expressing 3xFLAG-N-Myc (MG132 10 μg/ml 6 h), N-Myc antibody overnight at 4 °C and protein A/G magnetic beads; IgG on the same lysate and N-Myc antibody on 3xFLAG lysate as negative controls; HPLC-MS/MS, three replicates.

No constants are given. Whether binding was seen depends on the method and setting. Binding seen in cells or lysates may run through a third protein. Here binding means that the protein was enriched with, or labelled near, the bait; the list need not be complete.

With EP400 (from UniProt Q96L91 1-3159), the binding entry in assay [1], in assay [2] and in assay [3] was “binds” throughout.
Regarding HSPH1 (from UniProt Q92598 1-858), the binding entry in assay [1], in assay [2] and in assay [3] was “binds” each time.
With HUWE1 (from UniProt Q7Z6Z7 1-4374), the binding result in assay [1], in assay [2] and in assay [3] was “binds” throughout.
On to MAX (from UniProt P61244 1-160), for which the binding entry in assay [1], in assay [2] and in assay [3] was “binds” throughout.
As to PSMA1 (from UniProt P25786 1-263), the binding result in assay [1], in assay [2] and in assay [3] was “binds” throughout.
Consider PSMC1 (from UniProt P62191 1-440), for which the binding entry in assay [1], in assay [2] and in assay [3] was “binds” throughout.
As for PSMC2 (from UniProt P35998 1-433), the binding entry in assay [1], in assay [2] and in assay [3] was “binds” throughout.
With SMC2 (from UniProt O95347 1-1197), the binding entry in assay [1], in assay [2] and in assay [3] was “binds” each time.
TRRAP (from UniProt Q9Y4A5 1-3859): the binding result in assay [1], in assay [2] and in assay [3] was “binds” each time.
Turning to “histone acetyltransferase p300 (from UniProt Q09472 1-2414)”, the binding entry in assay [1] was “binds”.

B1: PYCRL (protein, UniProt Q53H96 1-274)
chain: MAAAEPSPRRVGFVGAGRMAGAIAQGLIRAGKVEAQHILASAPTDRNLCHFQALGCRTTHSNQEVLQSCLLVIFATKPHVLPAVLAEVAPVVTTEHILVSVAAGVSLSTLEELLPPNTRVLRVLPNLPCVVQEGAIVMARGRHVGSSETKLLQHLLEACGRCEEVPEAYVDIHTGLSGSGVAFVCAFSEALAEGAVKMGMPSSLAHRIAAQTLLGTAKMLLHEGQHPAQLRSDVCTPGGTTIYGLHALEQGGLRAATMSAVEAATCRAKELSRK
In the case of B1, the binding result in assay [1], in assay [2] and in assay [3] was “binds” throughout.

B2: SLC25A10 (protein, UniProt Q9UBX3 1-287)
chain: MAAEARVSRWYFGGLASCGAACCTHPLDLLKVHLQTQQEVKLRMTGMALRVVRTDGILALYSGLSASLCRQMTYSLTRFAIYETVRDRVAKGSQGPLPFHEKVLLGSVSGLAGGFVGTPADLVNVRMQNDVKLPQGQRRNYAHALDGLYRVAREEGLRRLFSGATMASSRGALVTVGQLSCYDQAKQLVLSTGYLSDNIFTHFVASFIAGGCATFLCQPLDVLKTRLMNSKGEYQGVFHCAVETAKLGPLAFYKGLVPAGIRLIPHTVLTFVFLEQLRKNFGIKVPS
Regarding B2, the binding result in assay [1], in assay [2] and in assay [3] was “binds” in each case.

Source of the values: paper PMC9984901.
